Results are given in words; binding and its absence hold for the method and conditions named. In cells and extracts the contact can be indirect. Some results given as binding are weak or reduced against the parent protein; the word gives no strength.
Assays:
[1] = biological target: OTUB1 (OTU domain-containing ubiquitin aldehyde-binding proteins 1) (human (endogenous in MCF-7)) (UniProt Q96FW1); test: co-IP; IP with an OTUB1 or a FOXM1 antibody (control IgG beside it) from lysates of MCF-7 and MCF-7EpiR cells, western blot for FOXM1 or OTUB1; also after 1 uM epirubicin for 0, 6 and 24 h
Flag-tagged OTUB1 = Flag-tagged OTUB1 (UniProt Q96FW1); test: co-IP; FOXM1 co-precipitated with transiently transfected Flag-tagged OTUB1 (Supplementary Figure S1b)

The chains behind the UniProt entries cited, without tags or fusion partners.
UniProt Q96FW1: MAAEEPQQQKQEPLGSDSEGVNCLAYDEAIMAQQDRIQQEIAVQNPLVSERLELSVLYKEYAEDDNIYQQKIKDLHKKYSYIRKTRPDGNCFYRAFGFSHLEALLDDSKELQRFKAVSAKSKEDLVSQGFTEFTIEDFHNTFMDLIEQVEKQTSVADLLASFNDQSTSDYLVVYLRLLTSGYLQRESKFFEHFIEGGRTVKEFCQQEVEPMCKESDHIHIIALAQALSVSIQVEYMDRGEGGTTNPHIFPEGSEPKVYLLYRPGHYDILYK

B1: Forkhead box M1 (FOXM1) transcription factor (protein, UniProt Q08050 1-763)
chain: MKTSPRRPLILKRRRLPLPVQNAPSETSEEEPKRSPAQQESNQAEASKEVAESNSCKFPAGIKIINHPTMPNTQVVAIPNNANIHSIITALTAKGKESGSSGPNKFILISCGGAPTQPPGLRPQTQTSYDAKRTEVTLETLGPKPAARDVNLPRPPGALCEQKRETCADGEAAGCTINNSLSNIQWLRKMSSDGLGSRSIKQEMEEKENCHLEQRQVKVEEPSRPSASWQNSVSERPPYSYMAMIQFAINSTERKRMTLKDIYTWIEDHFPYFKHIAKPGWKNSIRHNLSLHDMFVRETSANGKVSFWTIHPSANRYLTLDQVFKPLDPGSPQLPEHLESQQKRPNPELRRNMTIKTELPLGARRKMKPLLPRVSSYLVPIQFPVNQSLVLQPSVKVPLPLAASLMSSELARHSKRVRIAPKVLLAEEGIAPLSSAGPGKEEKLLFGEGFSPLLPVQTIKEEEIQPGEEMPHLARPIKVESPPLEEWPSPAPSFKEESSHSWEDSSQSPTPRPKKSYSGLRSPTRCVSEMLVIQHRERRERSRSRRKQHLLPPCVDEPELLFSEGPSTSRWAAELPFPADSSDPASQLSYSQEVGGPFKTPIKETLPISSTPSKSVLPRTPESWRLTPPAKVGGLDFSPVQTSQGASDPLPDPLGLMDLSTTPLQSAPPLESPQRLLSSEPLDLISVPFGNSSPSDIDVPKPGSPEPQVSGLAANRSLTEGLVLDTMNDSLSKILLDISFPGLDEDPLGPDNINWSQFIPELQ
binding [1]: binds | binding (Flag-tagged OTUB1): binds

Source: paper PMC4606987
